According to article PMC11601944:
Results are given in words; binding and its absence hold for the method and conditions named. Binding seen in cells or lysates may run through a third protein. Some entries that bind do so weakly or less than the wild type.

Amino acid sequences for entries named in this document (tags omitted).
UniProt Q14789: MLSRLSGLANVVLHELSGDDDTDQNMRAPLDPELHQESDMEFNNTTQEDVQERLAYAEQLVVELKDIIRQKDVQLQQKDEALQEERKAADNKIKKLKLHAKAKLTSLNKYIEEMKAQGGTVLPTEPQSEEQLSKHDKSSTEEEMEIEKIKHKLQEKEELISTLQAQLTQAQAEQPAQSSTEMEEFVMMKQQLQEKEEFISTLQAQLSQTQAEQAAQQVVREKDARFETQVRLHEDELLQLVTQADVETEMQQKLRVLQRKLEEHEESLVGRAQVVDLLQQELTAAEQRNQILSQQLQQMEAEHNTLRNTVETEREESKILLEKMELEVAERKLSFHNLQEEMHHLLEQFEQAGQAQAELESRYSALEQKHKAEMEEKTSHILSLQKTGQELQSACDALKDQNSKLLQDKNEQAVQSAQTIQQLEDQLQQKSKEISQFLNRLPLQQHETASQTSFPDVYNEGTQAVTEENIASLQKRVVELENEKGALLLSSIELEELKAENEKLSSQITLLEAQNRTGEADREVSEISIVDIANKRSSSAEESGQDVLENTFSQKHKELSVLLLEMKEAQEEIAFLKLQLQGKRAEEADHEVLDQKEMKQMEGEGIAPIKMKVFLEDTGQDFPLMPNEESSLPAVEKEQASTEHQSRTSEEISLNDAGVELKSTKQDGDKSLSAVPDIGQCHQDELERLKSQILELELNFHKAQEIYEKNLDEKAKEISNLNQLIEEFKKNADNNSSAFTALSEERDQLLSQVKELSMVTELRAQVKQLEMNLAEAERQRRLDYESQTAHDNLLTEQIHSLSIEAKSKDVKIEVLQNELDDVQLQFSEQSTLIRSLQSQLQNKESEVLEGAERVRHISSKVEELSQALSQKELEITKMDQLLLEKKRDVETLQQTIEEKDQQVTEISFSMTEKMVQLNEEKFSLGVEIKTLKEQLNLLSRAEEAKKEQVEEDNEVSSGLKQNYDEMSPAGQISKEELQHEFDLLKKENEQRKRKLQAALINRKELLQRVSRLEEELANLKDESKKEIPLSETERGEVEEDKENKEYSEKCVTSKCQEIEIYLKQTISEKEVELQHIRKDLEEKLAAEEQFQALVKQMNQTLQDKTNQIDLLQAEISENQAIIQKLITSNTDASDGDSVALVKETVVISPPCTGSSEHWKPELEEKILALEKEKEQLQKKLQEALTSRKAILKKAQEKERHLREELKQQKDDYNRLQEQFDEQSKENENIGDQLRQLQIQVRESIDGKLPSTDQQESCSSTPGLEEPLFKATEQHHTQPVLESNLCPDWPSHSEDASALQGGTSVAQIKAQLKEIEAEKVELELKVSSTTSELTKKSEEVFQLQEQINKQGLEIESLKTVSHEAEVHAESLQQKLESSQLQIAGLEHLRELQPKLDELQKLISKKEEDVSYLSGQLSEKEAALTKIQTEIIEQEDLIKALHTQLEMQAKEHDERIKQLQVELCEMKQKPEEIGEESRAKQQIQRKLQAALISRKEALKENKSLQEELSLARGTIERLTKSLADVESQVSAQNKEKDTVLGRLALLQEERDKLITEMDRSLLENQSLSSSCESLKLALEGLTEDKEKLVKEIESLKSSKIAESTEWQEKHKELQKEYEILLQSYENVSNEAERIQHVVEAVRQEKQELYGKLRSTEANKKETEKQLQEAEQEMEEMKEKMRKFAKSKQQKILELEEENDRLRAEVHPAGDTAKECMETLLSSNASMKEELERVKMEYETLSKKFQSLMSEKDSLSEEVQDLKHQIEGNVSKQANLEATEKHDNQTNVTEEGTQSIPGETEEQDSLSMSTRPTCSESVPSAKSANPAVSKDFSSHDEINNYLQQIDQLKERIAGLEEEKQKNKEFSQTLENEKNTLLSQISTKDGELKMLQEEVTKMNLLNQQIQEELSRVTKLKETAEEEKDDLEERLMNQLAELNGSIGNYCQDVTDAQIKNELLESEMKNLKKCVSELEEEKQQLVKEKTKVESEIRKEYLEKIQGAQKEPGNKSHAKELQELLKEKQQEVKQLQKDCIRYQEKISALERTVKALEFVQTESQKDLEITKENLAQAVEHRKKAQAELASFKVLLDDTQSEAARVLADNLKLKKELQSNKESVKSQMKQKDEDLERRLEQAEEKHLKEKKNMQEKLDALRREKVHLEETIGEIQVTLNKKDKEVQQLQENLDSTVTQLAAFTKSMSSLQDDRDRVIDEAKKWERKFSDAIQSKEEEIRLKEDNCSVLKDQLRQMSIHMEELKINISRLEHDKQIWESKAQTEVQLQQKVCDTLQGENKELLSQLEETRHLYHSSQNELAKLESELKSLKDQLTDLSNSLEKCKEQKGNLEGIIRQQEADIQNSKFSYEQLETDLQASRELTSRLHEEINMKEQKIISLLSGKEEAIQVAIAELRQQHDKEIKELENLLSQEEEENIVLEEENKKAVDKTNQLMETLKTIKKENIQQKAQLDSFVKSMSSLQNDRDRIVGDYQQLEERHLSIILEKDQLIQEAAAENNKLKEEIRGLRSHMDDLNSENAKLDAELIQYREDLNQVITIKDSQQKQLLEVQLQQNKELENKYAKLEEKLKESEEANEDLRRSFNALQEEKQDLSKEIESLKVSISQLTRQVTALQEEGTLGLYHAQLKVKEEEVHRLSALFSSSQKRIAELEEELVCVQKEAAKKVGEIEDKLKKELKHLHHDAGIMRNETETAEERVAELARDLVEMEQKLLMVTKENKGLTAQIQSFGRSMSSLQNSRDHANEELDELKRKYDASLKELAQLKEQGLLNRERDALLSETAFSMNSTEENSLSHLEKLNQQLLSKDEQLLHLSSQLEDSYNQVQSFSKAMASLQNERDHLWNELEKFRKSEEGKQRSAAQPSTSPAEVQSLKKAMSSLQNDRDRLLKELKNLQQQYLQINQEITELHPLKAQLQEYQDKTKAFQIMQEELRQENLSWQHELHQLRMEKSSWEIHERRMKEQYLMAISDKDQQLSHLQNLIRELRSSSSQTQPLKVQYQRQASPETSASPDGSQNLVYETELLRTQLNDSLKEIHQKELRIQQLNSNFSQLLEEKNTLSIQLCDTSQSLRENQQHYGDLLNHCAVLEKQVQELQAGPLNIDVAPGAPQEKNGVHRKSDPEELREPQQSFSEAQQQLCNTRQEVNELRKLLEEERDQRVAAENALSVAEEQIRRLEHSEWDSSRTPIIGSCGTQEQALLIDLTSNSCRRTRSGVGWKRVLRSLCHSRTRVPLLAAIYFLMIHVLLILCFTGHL

Experiments:
[1] = target: Giantin (human (endogenous in LSG and HSG cells)) (UniProt Q14789); test: co-IP; protein extracts of HSG cells (20 mM Tris-HCl pH 7.4, 150 mM NaCl, 1% Igepal, protease inhibitors); 500 ug total protein per assay; antibody-coated Protein-A/G-Sepharose beads; Western blot; control IgG anti-integrin alpha6
[2] = target: T1, GM130 (human (endogenous in LSG and HSG cells)) (UniProt Q08379); test: as above
T1 sequence: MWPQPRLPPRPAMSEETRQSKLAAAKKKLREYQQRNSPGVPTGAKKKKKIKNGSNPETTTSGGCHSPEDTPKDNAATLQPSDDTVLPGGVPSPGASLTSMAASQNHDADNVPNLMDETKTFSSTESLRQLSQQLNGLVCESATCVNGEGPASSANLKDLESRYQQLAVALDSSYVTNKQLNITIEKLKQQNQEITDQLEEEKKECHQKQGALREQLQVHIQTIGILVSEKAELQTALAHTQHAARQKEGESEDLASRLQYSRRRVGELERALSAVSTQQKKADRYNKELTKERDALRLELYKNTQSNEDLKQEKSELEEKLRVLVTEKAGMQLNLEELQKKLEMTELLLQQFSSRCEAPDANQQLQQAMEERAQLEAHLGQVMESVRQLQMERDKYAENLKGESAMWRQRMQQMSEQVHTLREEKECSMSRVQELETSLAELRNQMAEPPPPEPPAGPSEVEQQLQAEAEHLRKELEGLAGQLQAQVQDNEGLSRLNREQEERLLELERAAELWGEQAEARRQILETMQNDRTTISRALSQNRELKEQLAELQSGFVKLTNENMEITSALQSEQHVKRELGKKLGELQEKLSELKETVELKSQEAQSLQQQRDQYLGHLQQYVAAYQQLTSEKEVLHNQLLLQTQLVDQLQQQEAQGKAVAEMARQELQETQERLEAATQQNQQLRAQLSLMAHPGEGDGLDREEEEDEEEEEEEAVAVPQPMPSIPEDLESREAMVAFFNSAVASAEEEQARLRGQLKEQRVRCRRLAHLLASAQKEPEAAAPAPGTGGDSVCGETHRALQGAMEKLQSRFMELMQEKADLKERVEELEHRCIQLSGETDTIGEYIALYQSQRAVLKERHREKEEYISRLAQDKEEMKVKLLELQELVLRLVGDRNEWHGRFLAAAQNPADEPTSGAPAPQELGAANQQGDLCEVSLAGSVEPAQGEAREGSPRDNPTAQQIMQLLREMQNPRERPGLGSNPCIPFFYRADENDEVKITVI

[3] = target: Giantin (human (endogenous in LSG and HSG cells)) (UniProt Q14789); test: co-IP; pooled protein extracts of LSG from patients with SjD or controls (20 mM Tris-HCl pH 7.4, 150 mM NaCl, 1% Igepal, protease inhibitors); 500 ug total protein per assay; antibody-coated Protein-A/G-Sepharose beads; Western blot; control IgG anti-integrin alpha6
[4] = target: T1, GM130 (human (endogenous in LSG and HSG cells)); test: as above

B1: Gal3-O-sulfotransferase 2 (enzyme, UniProt Q9H3Q3 1-398)
chain: MMSMLGGLQRYFRVILLLLLALTLLLLAGFLHSDLELDTPLFGGQAEGPPVTNIMFLKTHKTASSTVLNILYRFAETHNLSVALPAGSRVHLGYPWLFLARYVEGVGSQQRFNIMCNHLRFNLPQVQKVMPNDTFYFSILRNPVFQLESSFIYYKTYAPAFRGAPSLDAFLASPRTFYNDSRHLRNVYAKNNMWFDFGFDPNAQCEEGYVRARIAEVERRFRLVLIAEHLDESLVLLRRRLRWALDDVVAFRLNSRSARSVARLSPETRERARSWCALDWRLYEHFNRTLWAQLRAELGPRRLRGEVERLRARRRELASLCLQDGGALKNHTQIRDPRLRPYQSGKADILGYNLRPGLDNQTLGVCQRLVMPELQYMARLYALQFPEKPLKNIPFLGA
**Q.** How did the binding [1] turn out when B1 was run?
**A.** binds

**Q.** And the binding [2]?
**A.** no binding

**Q.** What about the binding [3] of the same binder?
**A.** binds

**Q.** And the binding [4]?
**A.** no binding
